# Experimental data as given in publication PMC9288484.
# Amino acid sequences for entries named in this document (tags omitted). A change or cut given only in a name is not applied to a line headed by its entry.
# UniProt Q3UED7: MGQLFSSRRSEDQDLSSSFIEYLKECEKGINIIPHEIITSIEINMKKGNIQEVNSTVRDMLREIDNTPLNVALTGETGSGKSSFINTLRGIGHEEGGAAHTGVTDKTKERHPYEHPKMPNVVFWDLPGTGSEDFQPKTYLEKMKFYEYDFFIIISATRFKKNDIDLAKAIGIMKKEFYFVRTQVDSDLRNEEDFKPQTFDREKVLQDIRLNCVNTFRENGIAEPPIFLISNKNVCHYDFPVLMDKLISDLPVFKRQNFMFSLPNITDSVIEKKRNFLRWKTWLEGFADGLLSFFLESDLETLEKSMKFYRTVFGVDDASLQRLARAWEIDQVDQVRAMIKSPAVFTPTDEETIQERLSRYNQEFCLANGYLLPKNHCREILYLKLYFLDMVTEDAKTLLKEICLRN
# No constants are given. Whether binding was seen depends on the method and setting. Binding seen in cells or lysates may run through a third protein. Here binding means that the protein was enriched with, or labelled near, the bait; the list need not be complete.
# B1: Hydroxysteroid 17β-dehydrogenase 13 (HSD17B13), endogenous in mouse liver (protein, UniProt Q8VCR2 20-304)
# chain: ESLVKFFIPRRRKSVTGQTVLITGAGHGIGRLTAYEFAKQKSRLVLWDINKRGVEETADKCRKLGAVVHVFVVDCSNRAEIYNSVDQVKREVGDVEIVVNNAGAIYPADLLSAKDEEITKTFEVNILGHFWIIKALLPSMLRRNSGHIVTVASVCGHGVIPYLIPYCSSKFAAVGFHRALTAELDTLGKTGIQTSCLCPVFVNTGFTKNPSTRLWPVLEPEEVARSLINGILTNKKMIFVPSYINISLILEKGPGFSSKHPHGGSQQPVTPIPGDLTPSSDFLKH
# B2: IRGM1, endogenous in mouse liver (protein, UniProt Q60766 1-409)
# chain: MKPSHSSCEAAPLLPNMAETHYAPLSSAFPFVTSYQTGSSRLPEVSRSTERALREGKLLELVYGIKETVATLSQIPVSIFVTGDSGNGMSSFINALRVIGHDEDASAPTGVVRTTKTRTEYSSSHFPNVVLWDLPGLGATAQTVEDYVEEMKFSTCDLFIIIASEQFSSNHVKLSKIIQSMGKRFYIVWTKLDRDLSTSVLSEVRLLQNIQENIRENLQKEKVKYPPVFLVSSLDPLLYDFPKLRDTLHKDLSNIRCCEPLKTLYGTYEKIVGDKVAVWKQRIANESLKNSLGVRDDDNMGECLKVYRLIFGVDDESVQQVAQSMGTVVMEYKDNMKSQNFYTLRREDWKLRLMTCAIVNAFFRLLRFLPCVCCCLRRLRHKRMLFLVAQDTKNILEKILRDSIFPPQI
# Target: 3xFlag-GM4951 (endogenous protein of 3xFlag-Gm4951 knockin mice) (mouse) (UniProt Q3UED7)
# Assay: affinity purification with mass spectrometry; anti-Flag immunoprecipitates from +/+ or Gm4951 3xFlag/3xFlag whole liver lysates (Nonidet P-40 lysis buffer, Flag M2 beads, eluted with 3xFlag peptides), analysed by mass spectrometry
binder,measurement,value
B1,binding,binds
B2,binding,binds
